# Data reported in the supplement of paper PMC3334620.
# Whole data set: some 33,000 sequences, median “E-score (-0.5 to 0.5)” near -0.0034, cut for the highest 2% near 0.25. The list shows a part of the results.
# Molecular target: T1, Yap3 (UniProt P38749)
# T1 sequence: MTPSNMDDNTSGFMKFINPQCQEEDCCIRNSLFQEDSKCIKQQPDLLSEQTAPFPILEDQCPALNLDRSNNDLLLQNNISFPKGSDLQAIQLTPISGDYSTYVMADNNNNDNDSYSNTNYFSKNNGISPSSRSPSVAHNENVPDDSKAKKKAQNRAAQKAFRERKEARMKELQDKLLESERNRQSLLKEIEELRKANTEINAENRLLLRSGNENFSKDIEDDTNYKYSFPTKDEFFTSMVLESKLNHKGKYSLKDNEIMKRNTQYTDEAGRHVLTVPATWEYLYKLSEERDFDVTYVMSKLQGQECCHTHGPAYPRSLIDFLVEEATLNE
# Assay: PBM E-score (8-mer binding enrichment) (E-score (-0.5 to 0.5)); higher = stronger / more preferred TF binding
# Details: protein concentration: 100 nM; construct: GST-full length
# In short: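 Universal all-10-mer Agilent arrays, fresh or stripped once, were converted to double-stranded form by primer extension. GST-tagged yeast transcription factors from PURExpress in vitro transcription/translation, full-length or DNA-binding domain only, were applied at about 100-200 nM and detected with fluorescent anti-GST. After masliner normalisation, the Universal PBM Analysis Suite scored each ungapped eight-base word together with its reverse complement by E-score.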
row,Sequence,PBM E-score
1,CTGCCTTC,-0.071
2,GCGCAAGA,0.152
3,TACGATCA,0.0973
4,AGTGAATG,0.13
5,ATGTCTTG,0.0386
6,AAGCGAAG,-0.107
7,ACAATCAT,0.0973
8,CGTGTATA,0.134
9,ATAGCGCA,0.0674
10,GAGCTAGA,-0.166
11,AACAAAAG,0.164
12,GGCGGAAC,-0.132
13,AGGCGTCC,-0.0921
14,CCATGGCC,-0.193
15,CATCCAGC,-0.0989
16,CTCTGAGA,0.0651
17,CCCTGAAC,0.109
18,GACTCTTA,0.141
19,GCTTGTAC,0.117
20,ACCGAACA,0.0988
21,CCGGAGCA,-0.129
22,CAATTGGC,0.179
23,ATTCATAG,0.205
24,AATGTAGA,-0.0455
25,AGCTTGCG,-0.219

row,Sequence,PBM E-score
1,CTGTATAA,0.13
2,AGAGTTAG,-0.0808
3,TGTACAAA,0.196
4,AGCTCTGC,-0.215
5,CGTATGCC,-0.167
6,CTCAAAAG,0.00523
7,TACCGCCA,0.0501
8,GACATAGA,-0.00498
9,AAAGTGCG,0.106
10,TTAGCAAA,0.117
11,GTATCCAC,0.00896
12,GCGCCAGA,-0.258
13,TCCATTAA,0.0027
14,ATTGCCCA,0.0188
15,CTGAGAAG,-0.133
16,TCGTGTAA,0.0514
17,AGTCATCG,0.0401
18,GACGGAGA,-0.0696
19,ACTAACCC,0.0194
20,AAATTAAT,0.229
21,GAGCCGAC,-0.337
22,CGCCTATA,0.0163
23,CATATGGA,0.0733
24,CCTACACC,0.00957
25,GCCTTAGA,-0.118

row,Sequence,PBM E-score
1,TGACGCCA,0.0476
2,CACTCGGC,0.095
3,AACTACTC,0.093
4,CCTCGGGA,-0.0911
5,AGTCTTTC,0.0182
6,CCGGTAGG,-0.166
7,GCTTCTCA,-0.0894
8,AAGCGAAT,0.15
9,ATGCACCA,-0.0699
10,AACTTTAC,0.0915
11,CATAATAG,0.189
12,CGGGCAAC,-0.264
13,GTACCACA,0.0448
14,GTTTTTTA,0.202
15,ACGCCTGG,-0.102
16,AGCTTCAT,0.103
17,CGACCCGC,-0.22
18,CCATATCA,0.0903
19,AGACGAAA,0.147
20,CCAGCGCC,-0.194
21,CGAGATCG,-0.011
22,GATCCCGC,-0.00636
23,AATCCCAT,0.0573
24,TAATTGAA,0.0444
25,CCGAGTCC,-0.199

row,Sequence,PBM E-score
1,AAGATGCA,0.128
2,CGCCTTTC,-0.202
3,GGATACCC,-0.142
4,CGCGTCCA,-0.0281
5,ATAAATGA,0.217
6,GGAGAAAA,0.0507
7,TCATCTAA,-0.0652
8,AGATGACA,0.0699
9,AATCAGAC,0.0969
10,CAGAGCTG,-0.224
11,CTGGGAAA,0.0682
12,AGTCATAA,0.14
13,GCCGTAAA,0.209
14,GCCATGCA,-0.0815
15,ATTCTTTA,0.137
16,CAATCGTG,-0.0597
17,CCGGGGCG,-0.215
18,CATCCACG,0.0556
19,TATCCGGA,0.0257
20,CCACAACG,-0.0655
21,GGTCGAAC,-0.117
22,AAGGTCGA,0.0791
23,GGTAGTAA,0.0347
24,CACCGTCA,-0.0873
25,AGATTGCG,0.0819

row,Sequence,PBM E-score
1,GCGCGCTA,0.257
2,GTATCTCA,0.167
3,CGCAAACA,0.199
4,CTTATAAA,0.187
5,ACGACCGC,-0.245
6,CAAATAGC,0.0993
7,CTCCTGTA,0.102
8,CAGTGGCC,-0.186
9,CCCCTTGC,-0.281
10,ACGGAACG,0.116
11,ACTAGTTA,0.114
12,CCTAATAC,0.122
13,GTCTAGTA,0.132
14,ATGGCTGC,0.0187
15,TCAGAAGA,-0.153
16,GTGTACAA,0.191
17,AAATTGCG,0.0074
18,AATAGACA,-0.0177
19,AGGAGAAA,0.00362
20,CTCTATGA,-0.038
21,GACCACTA,0.102
22,ACCGGAGT,-0.204
23,GGCTTTAC,-0.0301
24,CAGTGCCA,-0.233
25,AGGTTTGG,-0.0823

row,Sequence,PBM E-score
1,ACAAGTCC,-0.207
2,ATCTAGAT,-0.0211
3,GAATAACA,0.308
4,ATCAGTCA,0.0825
5,ATGAACTC,8e-05
6,CTCTTAGC,-0.0346
7,GAAGCTTA,0.0705
8,AACTGACA,0.0248
9,AGGAAAAT,0.137
10,ATTACCAC,0.136
11,AATATATC,0.157
12,AACTAATC,0.0334
13,GATTAAGA,0.193
14,GGATCAGA,-0.0891
15,AATACCAA,0.095
16,CTATGTAC,0.0422
17,GAGACGGC,-0.138
18,CGGCACCA,-0.117
19,AAGCCATA,0.0111
20,ACGCTCCC,-0.0554
21,GAACGGTC,-0.0884
22,TCTTTTCA,0.221
23,CTACTCAG,-0.219
24,AATGCCTG,0.0136
25,AGCGGTCC,-0.175

# 58 consecutive records out of the list so far:
row,Sequence,PBM E-score
4,CCTCGGGA,-0.0911
5,AGTCTTTC,0.0182
6,CCGGTAGG,-0.166
7,GCTTCTCA,-0.0894
8,AAGCGAAT,0.15
9,ATGCACCA,-0.0699
10,AACTTTAC,0.0915
11,CATAATAG,0.189
12,CGGGCAAC,-0.264
13,GTACCACA,0.0448
14,GTTTTTTA,0.202
15,ACGCCTGG,-0.102
16,AGCTTCAT,0.103
17,CGACCCGC,-0.22
18,CCATATCA,0.0903
19,AGACGAAA,0.147
20,CCAGCGCC,-0.194
21,CGAGATCG,-0.011
22,GATCCCGC,-0.00636
23,AATCCCAT,0.0573
24,TAATTGAA,0.0444
25,CCGAGTCC,-0.199
1,AAGATGCA,0.128
2,CGCCTTTC,-0.202
3,GGATACCC,-0.142
4,CGCGTCCA,-0.0281
5,ATAAATGA,0.217
6,GGAGAAAA,0.0507
7,TCATCTAA,-0.0652
8,AGATGACA,0.0699
9,AATCAGAC,0.0969
10,CAGAGCTG,-0.224
11,CTGGGAAA,0.0682
12,AGTCATAA,0.14
13,GCCGTAAA,0.209
14,GCCATGCA,-0.0815
15,ATTCTTTA,0.137
16,CAATCGTG,-0.0597
17,CCGGGGCG,-0.215
18,CATCCACG,0.0556
19,TATCCGGA,0.0257
20,CCACAACG,-0.0655
21,GGTCGAAC,-0.117
22,AAGGTCGA,0.0791
23,GGTAGTAA,0.0347
24,CACCGTCA,-0.0873
25,AGATTGCG,0.0819
1,GCGCGCTA,0.257
2,GTATCTCA,0.167
3,CGCAAACA,0.199
4,CTTATAAA,0.187
5,ACGACCGC,-0.245
6,CAAATAGC,0.0993
7,CTCCTGTA,0.102
8,CAGTGGCC,-0.186
9,CCCCTTGC,-0.281
10,ACGGAACG,0.116
11,ACTAGTTA,0.114

# (list continues)

row,Sequence,PBM E-score
1,CTAAGGGA,0.0792
2,TACGTGAA,0.2
3,CTTTCACA,0.164
4,AAAATTAA,0.138
5,CATGCCAC,-0.0581
6,AACAAGAG,-0.0705
7,GCGGCCTA,-0.0845
8,GGGAGCCA,-0.171
9,AGATAGTA,0.14
10,AGCGGCGC,-0.188
11,CGACATCA,0.0904
12,GCCCTTAA,-0.197
13,GAAGGGTC,-0.373
14,TATCGACA,-0.00051
15,ACAAGTCT,0.0466
16,TATCGCCA,0.0619
17,CATCACAA,0.0635
18,CCCGACGG,-0.146
19,ATAAGTTC,0.244
20,AAAGCCGG,-0.00605
21,GAACTACA,0.0379
22,GTGATCCA,-0.0162
23,AGACATAT,0.185
24,CACTCGTC,-0.0107
25,ATGAAACC,0.0907

row,Sequence,PBM E-score
1,AGGTTACC,0.155
2,CGAGGTTC,0.0474
3,AACATTCC,-0.00151
4,CGATTCCA,-0.0507
5,GGCCGCCC,-0.273
6,GGTTAACC,-0.0407
7,AAGCGTCA,-0.0428
8,AACCTTTG,-0.0148
9,AATTGTGA,0.229
10,CGGAGTTC,0.0329
11,AGTCCCAA,-0.0515
12,ATTTCTAA,0.0658
13,AGCGCGAC,0.0599
14,CCCAGAAC,-0.00833
15,ACCGCTCG,-0.0737
16,CTAGCTAA,0.0653
17,GTTGAGTA,0.0684
18,ATTGGGTC,-0.0609
19,AGTCTTAA,-0.0698
20,CCATAACA,0.192
21,AGTCCAGC,-0.21
22,CATCAAGC,-0.0486
23,ATTCGGCA,0.0276
24,AATCCTAC,-0.172
25,ACCATCAT,0.0616

row,Sequence,PBM E-score
1,GTTAAATA,0.178
2,GGGATTTA,0.00928
3,AAGCTGTG,-0.0227
4,ATGAGCTA,0.0721
5,GCCGCTAC,-0.035
6,AGTATGTG,0.203
7,CACGTAAC,0.139
8,CAGCACGA,-0.042
9,GAACGGCA,0.0495
10,GAGAGTCA,-0.0408
11,TCCACCCA,-0.0597
12,ACGGGATC,-0.031
13,TGTGAGAA,0.198
14,CGGCCCCC,-0.416
15,TGTTGAAA,0.156
16,CTTTAGGA,-0.0461
17,CTAACCCA,-0.0614
18,TAAGTCTA,-0.0558
19,GCACTGAA,0.0659
